These are yes or no findings as the source states them, for the method shown. In cells and extracts the contact can be indirect. These calls come from enrichment with a bait or labelling near it, and not all partners need be listed.
B1: Ntr1 (protein, UniProt Q06411 1-708)
chain: MEDSDSNTDKKFFFKKRRIDSYNYSDEEDNNSSMNSDMTYTNDALKTSSGNAPTISKLTKTYGIGAKLLSSMGYVAGKGLGKDGSGITTPIETQSRPMHNAGLGMFSNTNSSNYHSENEDYLSSEDEVVEGIEQVKFNKTSTEVLGEALLNDSGDMTIVRTLRELRLAGVQLPESILKELDPLNAVPKPKKDVVVEILQELLGIEKSLEAIRQRTSPLEVQVKEYYGQERLLSELEVTLRDESKHVSLYDKIGAILKLSDDELIDRLTSCLLRKELLIEFDLDHLEKPNDILDELTQIIELLAYRMDTTSKFLNRTQTTIFKVIYPKLKKFWEGFDMTKSKIDSAITLLLDFQQVLSFIGCKEHIMEEFVYPKLLQELDNWELHDEVDHVSPRIWVLDFMVLIDDKIKDTIVDKIEAKFFAYCKNWYHRESFCITNSDIIFIKELICERRYYKILCKEFLPKFLDELWERHNDPIYELEDWKEKQEWKEKDSGFFYFMKKLRSYTHYFHPKQYELMMRGTFNNINKILYQWHLYSTVEDLHKSKWWLNWLMNTVFEHSLPTEIELSEIRKSYNIFAMSHRYHLDKSTLDEDFDLRQGLRNLMETQVIDDISQSEQEPTYTVQNIPLGKVSSSFKDVVEDYCLEKGYLISKIPNRYTQLPYGRDQDCIVPLFEIRNGKKKMEVALKHDILWVEDSSGTFKPIYLWALDL
B2: Pfa1 (protein, UniProt P53866 1-767)
chain: MAKRHSHYQGSRRRHARGSNSKKAGRGNAKGIQGRKIKKKPTPTNSWHNSSIPLGEGDLDDVGADFNPGRAFISPKTIEDYYFGRDAKSRSMKMGGLRPGNRYDSSTDLQAGRAAFRKRPMQFVKAKEVYDPSHNMIQKLRAKNETKNSEEIVEREADVFEEPGKMTSDVEYINNEDSENEDDDSQNSPSTDHSLSSNESKVEDGDLFFVDEEAQQSPDLTKIKRVCIEEIARPREVAIEFDPILTIGKVELSVSEGNESKEISVDVPNKGNKTYHPFAGYISNVLHGMHTSDSDNDELDYEIETENNSEPLYESSASSEVDQGFNYVGQRHNSRADNNLLPSPSPQLTEDIKCLSINGTKTFEGNNDNLPSPASEELEFGFKEEDFVINTNDIVVSNIRMGGVDNSYYLRCYRLLGDYDFHWIDQDLLTDFVVDELGLPEDRLPAYLNFIKNSLIPKIEPAEPTYSDIPISDSSDEGDSYEGDSYEDDEDMASSVVHSDIEEGLDDLIAYTLKHDTERFKTFETKSLETKGKGKKKKLLIDDALALDTETLETLQSKFSKRIETKAKKRKAKEDFIDQENRNSNDMLKKYPYGLHIQNIKDEFESFLSRNNDRLTFPPLDPHGNKTVMKIAKHYNMKSSKIGKANHTSVVVEKIKKTKWSSPNYSLIDQLMRQRPVFMRIDIRRPREEQAAFERTKTIRGKFHVKEGEIVGQNAPEIGNENIGRRMLEKLGWKSGEGLGIQGNKGISEPIFAKIKKNRSGLRHSES
B3: Pxr1 (protein, UniProt P53335 1-271)
chain: MGLAATRTKQRFGLDPRNTAWSNDTSRFGHQFLEKFGWKPGMGLGLSPMNSNTSHIKVSIKDDNVGLGAKLKRKDKKDEFDNGECAGLDVFQRILGRLNGKESKISEELDTQRKQKIIDGKWGIHFVKGEVLASTWDPKTHKLRNYSNAKKRKREGDDSEDEDDDDKEDKDSDKKKHKKHKKHKKDKKKDKKDKKEHKKHKKEEKRLKKEKRAEKTKETKKTSKLKSSESASNIPDAVNTRLSVRSKWIKQKRAALMDSKALNEIFMITND

Sequences of proteins named here, by UniProt entry; tags and fusion partners are left off.
UniProt P53131: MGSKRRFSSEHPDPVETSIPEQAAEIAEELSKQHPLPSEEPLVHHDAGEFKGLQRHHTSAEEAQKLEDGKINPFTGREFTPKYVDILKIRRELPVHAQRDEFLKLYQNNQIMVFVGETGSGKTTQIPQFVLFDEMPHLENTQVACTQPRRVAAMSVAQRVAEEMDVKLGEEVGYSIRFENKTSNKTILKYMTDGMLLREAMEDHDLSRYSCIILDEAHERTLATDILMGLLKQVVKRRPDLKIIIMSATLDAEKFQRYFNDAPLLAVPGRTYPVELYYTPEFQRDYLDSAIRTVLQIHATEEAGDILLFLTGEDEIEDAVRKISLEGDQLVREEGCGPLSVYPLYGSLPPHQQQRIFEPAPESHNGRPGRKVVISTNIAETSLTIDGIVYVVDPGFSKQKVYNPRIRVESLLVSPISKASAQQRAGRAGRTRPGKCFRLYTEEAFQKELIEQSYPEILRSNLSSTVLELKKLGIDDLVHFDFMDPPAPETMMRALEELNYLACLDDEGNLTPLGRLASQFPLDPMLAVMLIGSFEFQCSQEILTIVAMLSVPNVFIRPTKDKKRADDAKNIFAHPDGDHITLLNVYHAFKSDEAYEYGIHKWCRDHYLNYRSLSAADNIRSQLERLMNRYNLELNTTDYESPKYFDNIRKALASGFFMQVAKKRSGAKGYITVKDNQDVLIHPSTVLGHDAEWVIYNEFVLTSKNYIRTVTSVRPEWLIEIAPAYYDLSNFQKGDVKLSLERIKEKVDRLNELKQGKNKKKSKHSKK

These binders were tested against Prp43-TAP (S. cerevisiae) (UniProt P53131) (assay: affinity purification with mass spectrometry; Prp43-TAP purified from yeast lysate (IgG Sepharose, TEV elution, Calmodulin Sepharose, EGTA elution); eluate analysed by label-free quantitative mass spectrometry; untagged BY4741 as control).

binding, binds:
B1, B2, B3

From publication PMC11584650, “An inhibitory segment within G-patch activators tunes Prp43-ATPase activity during ribosome assembly” (Nature Communications, 2024)
